Results are given in words; binding and its absence hold for the method and conditions named. Binding seen in cells or lysates may run through a third protein. Some binding calls cover weakened binding; strength is not graded here.
Biological target: T1, Retinol-binding protein 1 (UniProt P09455)
T1 sequence: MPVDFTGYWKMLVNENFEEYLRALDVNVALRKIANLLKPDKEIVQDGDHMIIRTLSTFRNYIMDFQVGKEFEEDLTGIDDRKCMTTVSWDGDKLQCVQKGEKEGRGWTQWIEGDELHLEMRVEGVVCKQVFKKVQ
Assay: co-IP; Co-IP kit (Thermo Scientific); SCC15 cell lysate incubated with the indicated antibodies overnight at 4 °C, protein A/G beads 2 h at 4 °C, washed three times with IP lysis buffer, western blot (anti-RBP1, anti-CKAP4, anti-IgG)

By UniProt entry, the sequences of proteins in these tests, tags left out.
UniProt Q07065: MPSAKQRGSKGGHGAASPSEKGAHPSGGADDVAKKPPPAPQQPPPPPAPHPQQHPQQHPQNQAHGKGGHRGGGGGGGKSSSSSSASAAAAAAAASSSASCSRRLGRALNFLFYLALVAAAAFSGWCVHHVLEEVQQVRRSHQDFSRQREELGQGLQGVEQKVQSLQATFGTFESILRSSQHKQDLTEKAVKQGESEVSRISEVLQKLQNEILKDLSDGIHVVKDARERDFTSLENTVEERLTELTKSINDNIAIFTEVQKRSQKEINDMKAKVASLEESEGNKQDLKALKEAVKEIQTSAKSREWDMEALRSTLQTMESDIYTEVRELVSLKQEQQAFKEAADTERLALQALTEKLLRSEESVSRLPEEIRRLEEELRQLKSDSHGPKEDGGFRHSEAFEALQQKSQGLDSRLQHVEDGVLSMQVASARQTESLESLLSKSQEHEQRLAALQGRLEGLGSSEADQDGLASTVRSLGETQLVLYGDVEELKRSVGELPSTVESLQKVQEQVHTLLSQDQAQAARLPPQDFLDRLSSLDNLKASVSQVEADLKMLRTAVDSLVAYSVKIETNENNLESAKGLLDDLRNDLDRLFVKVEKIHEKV

binding: binds
Substance: Cytoskeleton-associated protein 4 (from UniProt Q07065 1-602)

From PMC7316825
